The results in this text go back to PubChem BioAssay AID445 (National Center for Advancing Translational Sciences (NCATS), 2006).

Usually AC50 stands for the midpoint of the concentration-response curve, whichever way the signal moves.

The list shows a part of the results. These are further read-outs of the screen, such as a control signal, another cell line or another target. No call is given for them. The list favours compounds with an active or inconclusive main result. The note in brackets gives the kind of curve behind each potency; many fits are weak. *1 amine or outer side, *2 acyl side, *3 side chain or, on linkers, in order; H or OH if unused. Where a SMILES comes first, the peptide text is derived from it. Bridges are numbered along the chain shown (N, C = ends). Roman numbers before positions name the chains, in order. [ ]: non-standard residue; d: D form. Actinocin(9to1) = Cc1c2oc3c(C)ccc(C(=O)[*:1])c3nc-2c(C(=O)[*:2])c(N)c1=O; aThr = C[C@H](O)[C@H](N)C(=O)O; NMeV = CN[C@H](C(=O)O)C(C)C; Sar = CNCC(=O)O

A short description of this assay: IkB Signaling. As to conditions: ABC-DLBCL IkBa-CBG/CBR dual luciferase ratio (green luciferase fused to IkBa over red control in OCI-Ly3 lymphoma cells), 4 h; measured here: control luc red channel unless noted. An outline of the steps: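 Curves were fitted separately to fusion (green), unfused (red) and ratio luminescence, then classed by r2, magnitude and activity. Cells: OCI-Ly3, 4 h compound plus doxycycline at 37C; 10 uM MG-132 defined full response.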
On to `Cc1c2oc3c(C)ccc(C(=O)N[C@@H]4C(=O)N[C@@H](C(C)C)C(=O)N5CCC[C@@H]5C(=O)N(C)CC(=O)N(C)[C@@H](C(C)C)C(=O)O[C@H]4C)c3nc-2c(C(=O)N[C@@H]2C(=O)N[C@@H](C(C)C)C(=O)N3CCC[C@@H]3C(=O)N(C)CC(=O)N(C)[C@@H](C(C)C)C(=O)O[C@H]2C)c(N)c1=O` (I: [aThr]V[dP][Sar][NMeV] / II: [aThr]V[dP][Sar][NMeV]; ester I:1-I:C, II:1-II:C; linker I:N-II:N via Actinocin(9to1)), for which the AC50 is 0.0158 µM [falling, full curve].
`OC(C#Cc1ccccn1)c1cccs1` (configuration not stated): the AC50 was 20 µM [rising, single point] [measured here: IkB-luc green channel].
Consider `COc1ccc(NC(=O)c2oc3ccccc3c2NC(=O)c2cc3ccccc3o2)cc1`, for which the AC50 is 2.51 µM [falling, partial curve].
Then `CCc1ccc(NS(=O)(=O)c2ccc3[nH]cc(C(=O)NCC4CCCO4)c(=O)c3c2)cc1` (configuration not stated), with 7.94 µM [falling, partial curve]; and `Cc1ccccc1S(=O)(=O)Cc1ccc(C(=O)NC2CCCCC2)o1`, with 0.0251 µM [falling, full curve, poor fit]; and `Cc1ccc(OC(=O)c2cc(-c3ccc4c(c3)OCCO4)on2)cc1C`, with 15.8 µM [falling, partial curve].
Then `COc1ccc(OC)c2c(=S)c3ccccc3[nH]c12`, with 2 µM [falling, full curve]; and `CCOc1ccc(NC(=O)CSc2nnc3scc(-c4ccc(Cl)cc4)n23)cc1`, with 39.8 µM [falling, single point]; and `CCOc1cccc2cc(-c3nc4ccc(C(=O)O)cc4[nH]3)c(=O)oc12`, with 0.126 µM [falling, full curve].
For `COc1ccc(C)cc1S(=O)(=O)N1CCN(c2cccc(Cl)c2)CC1`, the AC50 is 25.1 µM [falling, single point].
As to `Cc1c(O)ccc2c3c(c(=O)oc12)CCC(C)C3` (configuration not stated), the AC50 was 25.1 µM [falling, partial curve].
Then `COc1ccc(Nc2ncc(C(=O)N3CCN(c4cccc(Cl)c4)CC3)c3ccccc23)cc1`, with 7.94 µM [falling, full curve]; and `Cc1ccc(C)c(-n2c(CCC(=O)O)ccc2-c2ccc(Cl)cc2)c1`, with 3.98 µM [falling, full curve].
With `COCCn1ccc2c(OCC(=O)Nc3cccc(OC)c3)cccc2c1=O` the figure was 12.6 µM [falling, partial curve]; with `Cc1ccc(Cl)cc1N1CCN(C(=O)COc2ccc(S(=O)(=O)NC(C)C)cc2)CC1`, 12.6 µM [falling, partial curve].
Then `COc1ccc(CNC(=O)c2c(O)nc3cc(C)ccn3c2=O)cc1`, with 25.1 µM [falling, single point].
As for `CCc1ccc2ncc3c(-c4ccc(F)cc4)nn(CC(=O)NCc4ccccc4)c3c2c1`, the AC50 was 3.16 µM [falling, partial curve].
With `Cc1ccc(C(C)C)c(OCC(=O)Nc2ccc(C(=O)OC3CCCCC3)cc2)c1` the figure was 0.1 µM [rising, full curve].
Then `Cc1ccc(/C=C/c2onc(C)c2S(=O)(=O)N2CCC(C(=O)NCc3ccc(C)o3)CC2)cc1`, with 39.8 µM [rising, partial curve].
Then `COc1cccc(CNC(=O)Cc2ccc(NC(=O)N3CCCCc4ccccc43)cc2)c1OC`, with 39.8 µM [falling, single point]; and `COc1cc(NC(=O)CCc2nc(-c3cccs3)no2)cc(OC)c1OC`, with 39.8 µM [falling, single point]; and `O=C(c1ccccc1)c1nc[nH]c1C(=O)Nc1ccccc1`, with 15.8 µM [falling, partial curve].
With `c1coc(-c2nnc(SCc3nc4ccccc4[nH]3)o2)c1`, the AC50 is 25.1 µM [falling, partial curve].
With `Cc1ccc(C(=O)CC2(O)C(=O)N(CCc3ccccc3)c3ccc(Cl)cc32)cc1` (configuration not stated) the figure was 15.8 µM [falling, partial curve]; with `CC(C)OC(=O)c1cccnc1SCc1cc(=O)n2ccccc2n1`, 12.6 µM [falling, partial curve]; with `c1ccc(Sc2nc(N3CCCCC3)nc(N3CCCCC3)n2)nc1`, 15.8 µM [falling, partial curve].
With `CCOc1ccc(-c2nn(CC(=O)NC3CCCCC3)c3c2cnc2ccc(C)cc23)cc1` the figure was 3.98 µM [falling, partial curve]; with `Cc1ccc(Cl)cc1N1CCN(C(=O)Cn2ccc3ccccc3c2=O)CC1`, 10 µM [falling, partial curve]; with `COc1cc(-c2noc(-c3ccc(NCc4ccccc4)c([N+](=O)[O-])c3)n2)cc(OC)c1OC`, 6.31 µM [falling, partial curve].
Then `Cc1ccc(C(=O)NCCc2ccc(Cl)cc2)cc1-n1c(C)nc2cccnc21`, with 10 µM [falling, partial curve]; and `COc1ccc(NC(=O)Cn2nnc3sc4c(c3c2=O)CCC(C)C4)c(OC)c1` (configuration not stated), with 20 µM [falling, single point].
For `C/C(=C1/SC(=S)N(CCC(=O)O)C1=O)c1ccc(O)cc1`, the AC50 was 2.51 µM [falling, full curve].
With `CCn1c(=O)c2cc(C(=O)N(CCN(C)C)Cc3ccccc3)sc2c2ccccc21` the figure was 39.8 µM [falling, single point]; with `Cc1cc(C)cc(NC(=O)CSc2nc3c(oc4ccccc43)c(=O)n2-c2ccccc2F)c1`, 25.1 µM [falling, single point].
On to `COc1ccc2cc3cc(C(=O)NCc4ccc(C)cc4)oc3nc2c1`, for which the AC50 is 0.00501 µM [falling, full curve, poor fit].
With `COc1ccc(OC)c(CCNC(=O)c2ccc3c(c2)N(Cc2ccc(C)cc2)CCS3)c1` the figure was 15.8 µM [falling, partial curve]; with `COc1ccc(F)cc1S(=O)(=O)NCCc1c(C)[nH]c2c(Cl)cccc12`, 0.794 µM [rising, partial curve].
